Reference: US20160193240A1, “Ulmoside-A: Useful For Prevention Or Cure Of Metabolic Diseases” (COUNCIL OF SCIENTIFIC & INDUSTRIAL RESEARCH, priority 2013, published 2016)

Test system: wistar rats
Assay: Dexamethasone induced loss of body weight and death in rats
Settings: baseline
Procedure: All animal experiments were conducted in accordance with current legislation on animal experiments [Institutional Animal Ethical Committee (IAEC)] at C.D.R.I. In all animal experiments, rats were individually housed at 21° C., in 12-h light:12-h dark cycles. All animals had access to normal chow diet and water ad libitum.
Food intake was measured daily and the rats were weighed each week. The rats were fasted overnight (O/N) on day 14th and on day 15th oral glucose tolerance test was performed. Following oral glucose tolerance test (OGTT), rats were kept with food and water ad libitum for one day. On day 16th, rats were fasted again O/N and then euthanized. At autopsy, from 5 animals/group, tissues were collected and snap frozen in liquid nitrogen. Blood was collected from cardiac punctures. Plasma was separated from whole blood by centrifugation at 3000 rpm for 20 min immediately after collection of blood and stored at −80° C. until further analysis. […] (quadriceps) skeletal muscles were processed for RNA and protein extraction, followed by quantitative real-time PCR (QRT-PCR) analysis. Two animals from each group were used for photography post autopsy.

O=C1c2c(cc(O)c([C@@H]3O[C@H](CO)[C@@H](O)[C@H](O)[C@H]3O)c2O)O[C@@H](c2ccc(O)c(O)c2)[C@@H]1O [ULMA, (2S,3S)-(+)-3′,4′,5,7-tetrahydroxydihydroflavonol-6-C-β-D-glucopyranoside]
Initial body weight (Dex + ULMA-1 mg group): 178.9 ± 2.4 g | Initial body weight (g) (Dex + ULMA-5 mg group): 180.7 ± 3.2 ^ g
